Laboratory results from PubChem BioAssay AID248 (DTP/NCI, 2004).
The list does not hold the whole screen: it is rich in T/C values a quarter to a half above the control, in often repeated tests (any T/C) and in doses without a T/C. Further doses and runs are listed elsewhere. T/C: endpoint of the treated group in % of that of the vehicle group. Some entries give survivors of the animals treated and no T/C: the source holds a T/C of zero for them, seemingly a mark for toxic or unscored doses. Some survivor counts are full or nearly so, which does not show that the dose was tolerated: survival well below the control is almost never listed, so the zero probably covers shortened survival too. Survivors were counted at the toxicity check, usually on the fifth day, unless a day is given; later deaths do not show. Schedules are NCI's codes, taken here to give the interval after Q, in days (D) or hours (H), and the number of doses after X. Some structures stand for samples that the source files as different forms (salt, stereo form or complex); doses refer to the form tested. Some schedules carry Z or #; the key to these is not given. Marks such as (2×) stand for listed records that agree. For survival time, the PubChem record calls one and a half times the control and up active, and a quarter to a half above the control has no call in these data; cut-offs in other NCI protocols can differ. Some entries were tested several times; the values are given in rising order. Some T/C values carry the count of animals alive at the toxicity check (mostly the fifth day); without a count, all were alive then.

Tested on: L1210 leukemia ip in BDF1 mice, survival T/C
Assay: NCI In Vivo Anticancer Drug Screen. Data for tumor model L1210 Leukemia (intraperitoneal) in B6D2F1 (BDF1) mice
Conditions: T/C endpoint: mean survival time, higher T/C = longer survival
[1] = dose: 400.0 mg/kg/injection, schedule: Q04DX003 (ip), vehicle: saline
[2] = dose: 100.0 mg/kg/injection, schedule: Q01DX009 (ip), vehicle: saline
[3] = dose: 400.0 mg/kg/injection, schedule: Q04DX003 (ip), vehicle: Klucel (hydroxypropylcellulose) (HPC)
[4] = dose: 6.25 mg/kg/injection, schedule: Q01DX009 (ip), vehicle: saline
[5] = dose: 200.0 mg/kg/injection, schedule: Q01DX001 (ip), vehicle: saline
[6] = dose: 400.0 mg/kg/injection, schedule: Q01DX001 (ip), vehicle: saline
[7] = dose: 200.0 mg/kg/injection, schedule: Q04DX003 (ip), vehicle: saline
[8] = dose: 300.0 mg/kg/injection, schedule: Q01DX001 (ip), vehicle: saline
[9] = dose: 400.0 mg/kg/injection, schedule: Q01DX009 (ip), vehicle: Klucel (hydroxypropylcellulose) (HPC)

CCCCn1nnc2c(NCCc3cnc[nH]3)nc(N)nc21
survivor count (dose: 200.0 mg/kg/injection, schedule: Q01DX009 (ip), vehicle: saline with Tween-80): 3 of 6 | survivor count (dose: 400.0 mg/kg/injection, schedule: Q04DX003 (ip), vehicle: saline with Tween-80): 5 of 6

COC(=O)C(NC(=O)C(NC(=O)Cc1ccccc1)SCc1ccccc1)=C(C)C (centres undefined)
survivor count [1]: 6 of 6

CCSc1ncnc2c1ncn2CN1CCOCC1
T/C (dose: 30.0 mg/kg/injection, schedule: Q01DX009 (ip), vehicle: saline): 144 % of control | T/C (dose: 60.0 mg/kg/injection, schedule: Q01DX009 (ip), vehicle: saline): 141 % of control | T/C (dose: 88.0 mg/kg/injection, schedule: Q01DX009 (ip), vehicle: Klucel (hydroxypropylcellulose) (HPC)): 125 % of control | T/C [2]: 127 and 148 % of control | T/C (dose: 133.0 mg/kg/injection, schedule: Q01DX009 (ip), vehicle: Klucel (hydroxypropylcellulose) (HPC)): 146 % of control | T/C (dose: 150.0 mg/kg/injection, schedule: Q01DX009 (ip), vehicle: saline): 126 % of control | T/C (dose: 225.0 mg/kg/injection, schedule: Q01DX009 (ip), vehicle: saline): 142 % of control [5 of 6 alive] | survivor count (dose: 300.0 mg/kg/injection, schedule: Q01DX009 (ip), vehicle: Klucel (hydroxypropylcellulose) (HPC)): 1 of 6 | T/C (dose: 330.0 mg/kg/injection, schedule: Q04DX003 (ip), vehicle: saline): 134 % of control | T/C (dose: 337.5 mg/kg/injection, schedule: Q01DX009 (ip), vehicle: saline): 132 % of control | survivor count (dose: 340.0 mg/kg/injection, schedule: Q01DX009 (ip), vehicle: saline): 1 of 6 | survivor count [3]: 0 of 6 | survivor count (dose: 500.0 mg/kg/injection, schedule: Q01DX009 (ip), vehicle: saline): 3 of 6

N#CC1(C(O)c2ccccc2)C=Cc2ccccc2N1C(=O)c1ccccc1 (centres undefined)
survivor count (dose: 200.0 mg/kg/injection, schedule: Q01DX001 (ip), vehicle: steroid suspending solution): 6 of 6

CCCCCCCCCCCC[N+](C)(C)Cc1ccccc1
survivor count [4]: 4 of 6 | survivor count (dose: 12.5 mg/kg/injection, schedule: Q04DX003 (ip), vehicle: saline): 3 of 6 | survivor count (dose: 25.0 mg/kg/injection, schedule: Q01DX001 (ip), vehicle: saline): 1 of 6 | survivor count (dose: 50.0 mg/kg/injection, schedule: Q01DX001 (ip), vehicle: saline): 0 of 6 | survivor count (dose: 100.0 mg/kg/injection, schedule: Q01DX001 (ip), vehicle: saline): 0 of 6 | survivor count [5]: 0 of 6 | survivor count [6]: 0 of 6

Cc1cc(C)c(S(=O)(=O)O)c(Cc2cccc3ccccc23)c1
survivor count [7]: 3 of 6 | survivor count [6]: 0 of 6

CCCCCNC(C)=O
survivor count [2]: 1 of 6 | survivor count (dose: 400.0 mg/kg/injection, schedule: Q01DX009 (ip), vehicle: saline): 1 of 6

O=CNNC(=O)c1ccccn1
survivor count (dose: 200.0 mg/kg/injection, schedule: Q01DX001 (ip), vehicle: water): 2 of 4 | survivor count (dose: 400.0 mg/kg/injection, schedule: Q01DX001 (ip), vehicle: water): 0 of 4

Cc1ccc(S(=O)(=O)OCC2CO2)cc1 (centres undefined)
survivor count (dose: 200.0 mg/kg/injection, schedule: Q01DX009 (ip), vehicle: acetone): 6 of 6

N=c1ccn(CC(Cl)COc2ccccc2)cc1 (centres undefined)
survivor count [5]: 0 of 4 | survivor count [6]: 0 of 4

Oc1ccc(C2(c3ccc(O)cc3)CCCCC2)cc1
survivor count (dose: 400.0 mg/kg/injection, schedule: Q01DX009 (ip), vehicle: saline with Tween-80): 3 of 6

CC/C=C(CC)/C(CC)=C(\Br)CC
survivor count [1]: 6 of 6

CCCCCCC1CCCCN1 (centres undefined)
survivor count (dose: 80.0 mg/kg/injection, schedule: Q01DX001 (ip), vehicle: saline): 1 of 4

Nc1ncnc2c1c(C(=O)NO)cn2C1OC(CO)C(O)C1O (centres undefined)
T/C [4]: 136 % of control | T/C (dose: 12.5 mg/kg/injection, schedule: Q01DX005 (ip), vehicle: saline): 148 % of control | survivor count (dose: 25.0 mg/kg/injection, schedule: Q01DX009 (ip), vehicle: saline): 4 of 6 | survivor count (dose: 50.0 mg/kg/injection, schedule: Q01DX005 (ip), vehicle: saline): 0 of 6 | survivor count (dose: 75.0 mg/kg/injection, schedule: Q01DX001 (ip), vehicle: water): 3 of 6 | survivor count (dose: 100.0 mg/kg/injection, schedule: Q01DX005 (ip), vehicle: saline): 0 of 6 | survivor count (dose: 150.0 mg/kg/injection, schedule: Q01DX001 (ip), vehicle: water): 0 of 6 | survivor count (dose: 200.0 mg/kg/injection, schedule: Q01DX005 (ip), vehicle: saline): 0 of 6 | survivor count (dose: 300.0 mg/kg/injection, schedule: Q01DX001 (ip), vehicle: water): 0 of 6

Cc1ccc(SCCN)cc1
survivor count [8]: 0 of 6

NC(=S)N/N=C/c1ccc(Cl)cn1
survivor count (dose: 37.5 mg/kg/injection, schedule: Q01DX001 (ip), vehicle: saline with Tween-80): 0 of 10 | survivor count (dose: 37.5 mg/kg/injection, schedule: Q04DX003 (ip), vehicle: saline with Tween-80): 3 of 10 | survivor count (dose: 56.3 mg/kg/injection, schedule: Q01DX001 (ip), vehicle: saline with Tween-80): 0 of 10

Cc1cc(Cc2cccc[n+]2[O-])c2ccccc2n1
survivor count [3]: 0 of 6

CCOC(=O)C(=O)Nc1onc(C)c1[N+](=O)[O-]
survivor count [9]: 3 of 6

O=C(CCC[n+]1ccccc1)CC(O)(C(F)(F)F)C(F)(F)F
survivor count [1]: 0 of 6

Cc1cc(O)cc(=O)[nH]1
survivor count [6]: 1 of 4

CC1(C)N=C(N)N=C(N)N1c1ccc(CCCCc2ccc(S(=O)(=O)F)cc2)c(Cl)c1
survivor count (dose: 75.0 mg/kg/injection, schedule: Q01DX001 (ip), vehicle: saline): 1 of 6 | survivor count (dose: 150.0 mg/kg/injection, schedule: Q01DX001 (ip), vehicle: saline): 0 of 6 | survivor count [8]: 0 of 6

O=C(Nc1cccc(C2=NCCCN2)c1)c1ccc(C(=O)Nc2cccc(C3=NCCCN3)c2)cc1
survivor count (dose: 0.5 mg/kg/injection, schedule: Q01DX Z (ip), vehicle: saline): 0 of 6 | survivor count (dose: 0.8 mg/kg/injection, schedule: Q01DX Z (ip), vehicle: saline): 1 of 6 | survivor count (dose: 1.2 mg/kg/injection, schedule: Q01DX Z (ip), vehicle: saline): 0 of 6 | survivor count (dose: 1.77 mg/kg/injection, schedule: Q01DX Z (ip), vehicle: saline): 0 of 6 | survivor count (dose: 2.66 mg/kg/injection, schedule: Q01DX Z (ip), vehicle: saline): 0 of 6 | survivor count (dose: 4.0 mg/kg/injection, schedule: Q01DX Z (ip), vehicle: saline): 0 of 6 | survivor count (dose: 6.0 mg/kg/injection, schedule: Q01DX Z (ip), vehicle: saline): 0 of 6 | survivor count (dose: 10.0 mg/kg/injection, schedule: Q01DX Z (ip), vehicle: saline): 0 of 6 | survivor count (dose: 15.0 mg/kg/injection, schedule: Q01DX Z (ip), vehicle: saline): 0 of 6 | survivor count (dose: 22.0 mg/kg/injection, schedule: Q01DX Z (ip), vehicle: saline): 0 of 6

c1cc[c]([Hg][S]c2nc3ccccc3s2)cc1
survivor count (dose: 200.0 mg/kg/injection, schedule: Q01DX001 (ip), vehicle: carboxymethylcellulose (CMC)): 1 of 4 | survivor count (dose: 400.0 mg/kg/injection, schedule: Q01DX001 (ip), vehicle: carboxymethylcellulose (CMC)): 0 of 4

COc1ccc(/C=C(\C(=O)O)c2cccc3ccccc23)cc1
survivor count [9]: 2 of 6

NC(Cc1ccccc1)c1ccccc1 (centres undefined) (tested in a mixture with another compound)
survivor count [7]: 5 of 6 | survivor count [1]: 0 of 6 (2×)

NC(=O)c1c(Cl)nsc1Cl
survivor count (dose: 100.0 mg/kg/injection, schedule: Q01DX009 (ip), vehicle: Klucel (hydroxypropylcellulose) (HPC)): 3 of 6 | survivor count (dose: 200.0 mg/kg/injection, schedule: Q01DX009 (ip), vehicle: Klucel (hydroxypropylcellulose) (HPC)): 0 of 6 | survivor count [9]: 0 of 6
